# Source: the supplement of paper PMC10032668
# Amino acid sequences for entries named in this document (tags omitted).
# PFN1, P07737, UniProt P07737, whole entry: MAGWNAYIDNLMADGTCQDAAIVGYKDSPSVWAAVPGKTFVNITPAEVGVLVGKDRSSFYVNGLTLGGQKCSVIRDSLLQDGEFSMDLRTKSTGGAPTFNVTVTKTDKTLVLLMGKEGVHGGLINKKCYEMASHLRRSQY
# COX6B1, P14854, UniProt P14854, whole entry: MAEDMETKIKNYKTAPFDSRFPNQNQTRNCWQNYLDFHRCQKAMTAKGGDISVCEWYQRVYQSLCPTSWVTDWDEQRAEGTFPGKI
# PSMD3, O43242, UniProt O43242, whole entry: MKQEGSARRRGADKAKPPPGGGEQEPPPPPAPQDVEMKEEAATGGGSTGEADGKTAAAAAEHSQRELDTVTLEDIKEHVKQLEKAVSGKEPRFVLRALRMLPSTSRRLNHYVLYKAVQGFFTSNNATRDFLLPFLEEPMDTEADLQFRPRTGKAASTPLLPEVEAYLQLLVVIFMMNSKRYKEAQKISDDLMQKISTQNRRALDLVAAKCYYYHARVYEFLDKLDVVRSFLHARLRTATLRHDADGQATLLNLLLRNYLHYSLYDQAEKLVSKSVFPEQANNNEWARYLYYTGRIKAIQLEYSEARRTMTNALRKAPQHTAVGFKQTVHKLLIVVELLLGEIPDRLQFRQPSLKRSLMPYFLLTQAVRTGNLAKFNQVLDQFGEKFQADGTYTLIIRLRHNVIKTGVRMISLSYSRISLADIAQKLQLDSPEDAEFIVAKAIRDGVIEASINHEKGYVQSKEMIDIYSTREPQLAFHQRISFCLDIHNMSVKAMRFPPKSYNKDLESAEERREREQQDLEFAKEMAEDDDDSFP
# SMN2, Q16637, UniProt Q16637, whole entry: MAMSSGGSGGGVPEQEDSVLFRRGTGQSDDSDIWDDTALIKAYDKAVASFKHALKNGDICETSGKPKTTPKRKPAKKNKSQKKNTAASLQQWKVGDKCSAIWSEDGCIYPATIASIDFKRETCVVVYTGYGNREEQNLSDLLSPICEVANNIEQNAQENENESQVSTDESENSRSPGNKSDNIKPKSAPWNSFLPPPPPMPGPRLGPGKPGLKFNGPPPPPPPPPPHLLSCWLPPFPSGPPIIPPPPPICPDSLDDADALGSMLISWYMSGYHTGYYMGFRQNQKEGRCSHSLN
# POLR1C, O15160, UniProt O15160, whole entry: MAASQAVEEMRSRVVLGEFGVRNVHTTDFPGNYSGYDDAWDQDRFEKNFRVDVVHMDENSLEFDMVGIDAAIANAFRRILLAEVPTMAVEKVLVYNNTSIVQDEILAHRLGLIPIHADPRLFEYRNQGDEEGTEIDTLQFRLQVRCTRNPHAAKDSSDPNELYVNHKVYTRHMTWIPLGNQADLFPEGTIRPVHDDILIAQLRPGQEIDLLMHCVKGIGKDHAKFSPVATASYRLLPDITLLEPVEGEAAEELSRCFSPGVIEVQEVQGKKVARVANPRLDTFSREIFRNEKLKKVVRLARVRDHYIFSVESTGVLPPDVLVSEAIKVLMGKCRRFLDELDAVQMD
# TF, P02787, UniProt P02787, whole entry: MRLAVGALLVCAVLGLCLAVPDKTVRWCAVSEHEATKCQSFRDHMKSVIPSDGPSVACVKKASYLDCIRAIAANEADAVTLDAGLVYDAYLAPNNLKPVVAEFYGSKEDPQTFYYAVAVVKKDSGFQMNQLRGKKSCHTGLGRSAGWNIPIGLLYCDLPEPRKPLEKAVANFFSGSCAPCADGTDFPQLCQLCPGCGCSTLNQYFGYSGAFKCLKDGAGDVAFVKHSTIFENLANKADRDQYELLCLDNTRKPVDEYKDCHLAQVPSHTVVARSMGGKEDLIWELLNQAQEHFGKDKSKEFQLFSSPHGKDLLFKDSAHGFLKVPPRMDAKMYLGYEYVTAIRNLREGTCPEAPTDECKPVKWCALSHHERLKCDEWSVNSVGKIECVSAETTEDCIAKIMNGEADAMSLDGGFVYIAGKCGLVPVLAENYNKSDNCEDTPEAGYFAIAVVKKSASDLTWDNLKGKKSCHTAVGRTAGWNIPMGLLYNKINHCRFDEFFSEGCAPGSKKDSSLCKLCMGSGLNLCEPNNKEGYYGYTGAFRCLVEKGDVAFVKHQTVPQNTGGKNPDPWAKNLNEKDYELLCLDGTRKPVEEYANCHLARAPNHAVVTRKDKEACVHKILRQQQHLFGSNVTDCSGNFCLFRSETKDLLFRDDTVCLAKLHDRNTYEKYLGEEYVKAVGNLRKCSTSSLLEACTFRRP
# ITPR2, Q14571, UniProt Q14571, whole entry: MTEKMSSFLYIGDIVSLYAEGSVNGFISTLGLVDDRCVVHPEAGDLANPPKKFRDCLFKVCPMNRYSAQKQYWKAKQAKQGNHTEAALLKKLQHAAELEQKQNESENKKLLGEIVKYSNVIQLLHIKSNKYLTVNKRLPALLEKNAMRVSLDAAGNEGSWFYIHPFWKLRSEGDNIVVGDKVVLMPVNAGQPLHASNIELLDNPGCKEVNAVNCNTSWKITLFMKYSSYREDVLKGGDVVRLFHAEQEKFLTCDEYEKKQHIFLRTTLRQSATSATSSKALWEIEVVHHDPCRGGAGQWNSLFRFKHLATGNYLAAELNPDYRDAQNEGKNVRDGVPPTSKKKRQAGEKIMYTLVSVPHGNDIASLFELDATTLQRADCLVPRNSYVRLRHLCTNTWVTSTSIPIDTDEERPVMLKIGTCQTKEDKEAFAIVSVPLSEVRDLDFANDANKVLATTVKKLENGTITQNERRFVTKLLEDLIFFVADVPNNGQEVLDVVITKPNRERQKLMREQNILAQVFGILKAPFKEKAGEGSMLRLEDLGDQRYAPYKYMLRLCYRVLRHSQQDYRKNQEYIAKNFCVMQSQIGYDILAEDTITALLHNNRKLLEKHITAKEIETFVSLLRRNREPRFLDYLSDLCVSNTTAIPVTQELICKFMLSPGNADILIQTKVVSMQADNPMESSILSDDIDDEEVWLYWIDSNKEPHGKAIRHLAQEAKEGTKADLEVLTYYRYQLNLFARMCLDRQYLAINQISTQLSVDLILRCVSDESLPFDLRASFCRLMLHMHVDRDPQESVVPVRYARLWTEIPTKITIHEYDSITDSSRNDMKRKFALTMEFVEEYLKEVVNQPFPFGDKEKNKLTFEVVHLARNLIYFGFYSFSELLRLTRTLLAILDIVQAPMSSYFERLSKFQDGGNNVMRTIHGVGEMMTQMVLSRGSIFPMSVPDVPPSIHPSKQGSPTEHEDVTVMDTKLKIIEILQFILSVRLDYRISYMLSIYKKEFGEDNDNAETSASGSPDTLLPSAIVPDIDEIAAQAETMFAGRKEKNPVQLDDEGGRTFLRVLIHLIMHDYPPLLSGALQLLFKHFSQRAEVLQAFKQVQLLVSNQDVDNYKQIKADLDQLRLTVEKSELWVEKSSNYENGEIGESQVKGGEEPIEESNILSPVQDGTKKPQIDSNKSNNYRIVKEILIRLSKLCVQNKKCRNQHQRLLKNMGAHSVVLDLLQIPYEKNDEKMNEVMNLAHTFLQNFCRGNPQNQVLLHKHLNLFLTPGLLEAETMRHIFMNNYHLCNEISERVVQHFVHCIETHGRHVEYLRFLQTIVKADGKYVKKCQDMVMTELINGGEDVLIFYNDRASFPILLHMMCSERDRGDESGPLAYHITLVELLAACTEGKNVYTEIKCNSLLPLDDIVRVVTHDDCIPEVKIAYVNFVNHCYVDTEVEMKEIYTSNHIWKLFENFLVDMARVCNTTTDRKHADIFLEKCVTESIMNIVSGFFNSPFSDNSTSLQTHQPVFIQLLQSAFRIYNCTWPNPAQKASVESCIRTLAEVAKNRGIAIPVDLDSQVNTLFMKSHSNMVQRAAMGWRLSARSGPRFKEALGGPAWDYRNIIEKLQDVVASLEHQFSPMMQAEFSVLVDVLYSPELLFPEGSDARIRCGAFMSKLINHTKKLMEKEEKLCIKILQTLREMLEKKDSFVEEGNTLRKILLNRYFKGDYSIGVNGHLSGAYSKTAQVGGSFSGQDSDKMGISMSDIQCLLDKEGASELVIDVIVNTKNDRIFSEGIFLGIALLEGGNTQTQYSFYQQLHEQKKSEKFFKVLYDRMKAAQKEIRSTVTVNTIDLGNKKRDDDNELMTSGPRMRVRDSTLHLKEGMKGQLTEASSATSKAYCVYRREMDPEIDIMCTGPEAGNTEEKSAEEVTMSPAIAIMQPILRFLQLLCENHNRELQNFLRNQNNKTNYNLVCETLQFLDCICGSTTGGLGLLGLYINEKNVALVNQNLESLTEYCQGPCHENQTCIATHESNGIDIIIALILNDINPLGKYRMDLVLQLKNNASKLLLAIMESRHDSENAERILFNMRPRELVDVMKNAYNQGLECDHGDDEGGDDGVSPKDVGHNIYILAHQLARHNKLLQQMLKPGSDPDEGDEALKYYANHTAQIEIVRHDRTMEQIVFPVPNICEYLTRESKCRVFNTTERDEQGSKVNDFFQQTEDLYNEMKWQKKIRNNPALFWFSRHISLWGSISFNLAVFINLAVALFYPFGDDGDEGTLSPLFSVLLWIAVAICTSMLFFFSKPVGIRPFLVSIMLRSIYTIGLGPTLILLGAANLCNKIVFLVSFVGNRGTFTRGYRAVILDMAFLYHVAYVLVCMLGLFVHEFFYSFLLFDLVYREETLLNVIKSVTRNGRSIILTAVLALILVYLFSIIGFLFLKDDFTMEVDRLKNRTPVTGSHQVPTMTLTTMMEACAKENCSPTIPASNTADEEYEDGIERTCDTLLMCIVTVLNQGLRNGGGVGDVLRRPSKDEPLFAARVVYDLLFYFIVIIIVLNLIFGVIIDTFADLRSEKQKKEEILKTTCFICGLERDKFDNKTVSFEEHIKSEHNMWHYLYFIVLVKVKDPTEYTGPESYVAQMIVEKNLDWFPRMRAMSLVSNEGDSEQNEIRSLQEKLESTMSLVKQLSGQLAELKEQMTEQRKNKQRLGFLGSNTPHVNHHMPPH
# NDUFA6, P56556, UniProt P56556, whole entry: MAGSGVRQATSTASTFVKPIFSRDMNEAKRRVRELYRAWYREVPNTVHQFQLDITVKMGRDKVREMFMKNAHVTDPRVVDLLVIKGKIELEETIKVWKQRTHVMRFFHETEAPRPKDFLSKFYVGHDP
# PDHA1, P08559, UniProt P08559, whole entry: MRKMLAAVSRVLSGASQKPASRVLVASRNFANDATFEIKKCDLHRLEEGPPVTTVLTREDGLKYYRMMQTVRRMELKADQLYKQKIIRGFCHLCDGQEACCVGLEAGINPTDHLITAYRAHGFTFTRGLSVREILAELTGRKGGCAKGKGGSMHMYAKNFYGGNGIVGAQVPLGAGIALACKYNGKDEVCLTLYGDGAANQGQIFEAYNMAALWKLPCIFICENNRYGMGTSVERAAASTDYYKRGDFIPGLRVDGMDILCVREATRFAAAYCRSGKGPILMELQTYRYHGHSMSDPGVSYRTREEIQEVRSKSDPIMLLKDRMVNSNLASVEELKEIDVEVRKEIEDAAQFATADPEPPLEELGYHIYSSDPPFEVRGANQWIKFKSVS
# MTPN, P58546, UniProt P58546, whole entry: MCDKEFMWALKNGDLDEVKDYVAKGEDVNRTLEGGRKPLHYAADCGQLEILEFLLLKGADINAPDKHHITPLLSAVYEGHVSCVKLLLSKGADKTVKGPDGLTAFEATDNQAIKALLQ
# PCBP2, Q15366, UniProt Q15366, whole entry: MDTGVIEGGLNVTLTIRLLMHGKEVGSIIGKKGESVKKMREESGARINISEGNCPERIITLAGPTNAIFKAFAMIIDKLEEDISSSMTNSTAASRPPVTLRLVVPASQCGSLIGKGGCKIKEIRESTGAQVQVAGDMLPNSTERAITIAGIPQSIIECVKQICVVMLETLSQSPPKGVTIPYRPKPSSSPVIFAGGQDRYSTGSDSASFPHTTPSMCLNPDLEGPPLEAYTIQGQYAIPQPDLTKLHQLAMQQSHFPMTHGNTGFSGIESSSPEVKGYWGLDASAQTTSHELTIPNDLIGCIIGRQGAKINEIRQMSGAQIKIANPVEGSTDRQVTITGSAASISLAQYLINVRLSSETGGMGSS
# PES1, O00541, UniProt O00541, whole entry: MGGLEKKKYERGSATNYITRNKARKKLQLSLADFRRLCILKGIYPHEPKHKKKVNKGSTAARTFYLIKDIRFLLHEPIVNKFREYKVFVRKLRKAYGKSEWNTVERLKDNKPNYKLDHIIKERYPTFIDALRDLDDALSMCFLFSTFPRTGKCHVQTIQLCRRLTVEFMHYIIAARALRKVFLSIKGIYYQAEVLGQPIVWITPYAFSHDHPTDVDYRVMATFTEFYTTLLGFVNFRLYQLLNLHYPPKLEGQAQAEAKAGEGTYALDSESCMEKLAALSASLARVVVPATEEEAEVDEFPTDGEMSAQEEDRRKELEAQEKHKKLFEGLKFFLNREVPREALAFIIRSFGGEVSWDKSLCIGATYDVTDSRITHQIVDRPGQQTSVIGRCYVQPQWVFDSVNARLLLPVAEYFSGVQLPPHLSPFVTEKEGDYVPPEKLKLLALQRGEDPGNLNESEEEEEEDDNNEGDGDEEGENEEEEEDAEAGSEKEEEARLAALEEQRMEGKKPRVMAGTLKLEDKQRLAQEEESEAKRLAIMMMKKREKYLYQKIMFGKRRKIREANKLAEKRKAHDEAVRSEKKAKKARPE
# This is one part of the list. The list holds hits alone, and they repeat only in part.
# Key:
# Experiment in all cases: PRISMA enrichment of interactor (LFQ) in peptide spot vs all other peptide spots (log2 fold change); higher = stronger / more specific binding of the interactor to the peptide
# [1] = target: YLPM1, P49750
# Experimental: (§1)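 PRISMA: 15-aa overlapping tiles (offset 8 aa) of 60 microproteins, plus SOS1/GLUT1 control peptides, were spot-synthesized on cellulose membranes in triplicate. Membranes were incubated with benzonase-treated HEK293T lysate, and bound proteins were identified by LC-MS/MS with LFQ. Enrichment is the log2 fold change of each protein in one spot versus all other spots. Only interactors passing the significance cutoff are listed.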
# [2] = target: ZNF622, Q969S3
# Experimental: as §1
# [3] = target: hCG_1984214
# Experimental: as §1
# [4] = target: ARGLU1, Q9NWB6
# Experimental: as §1
# [5] = target: DLGAP5, Q15398
# Experimental: as §1
# [6] = target: EIF1AD, Q8N9N8
# Experimental: as §1
# [7] = target: EIF4G2, P78344
# Experimental: as §1
# [8] = target: MAGT1, Q9H0U3
# Experimental: as §1
# [9] = target: MRPS21, P82921
# Experimental: as §1
# [10] = target: PDK3, Q15120
# Experimental: as §1
# [11] = target: PFN1, P07737
# Experimental: as §1
# [12] = target: SART1, O43290
# Experimental: as §1
# [13] = target: SEMG2, Q02383
# Experimental: as §1
# [14] = target: COX6B1, P14854
# Experimental: as §1
# [15] = target: SPTAN1, Q13813
# Experimental: as §1
# [16] = target: VCP, P55072
# Experimental: as §1
# [17] = target: ARHGEF2, Q92974
# Experimental: as §1
# [18] = target: CBX4, O00257
# Experimental: as §1
# [19] = target: LARS, Q9P2J5
# Experimental: as §1
# [20] = target: PSMB5, P28074
# Experimental: as §1
# [21] = target: PYCR3, Q53H96
# Experimental: as §1
# [22] = target: ASMTL, O95671
# Experimental: as §1
# [23] = target: C11orf98, E9PRG8
# Experimental: as §1
# [24] = target: CDC37, Q16543
# Experimental: as §1
# [25] = target: DAB2IP, Q5VWQ8
# Experimental: as §1
# [26] = target: DEF8, Q6ZN54
# Experimental: as §1
# [27] = target: FLOT1, O75955
# Experimental: as §1
# [28] = target: GNG12, Q9UBI6
# Experimental: as §1
# [29] = target: PSMD3, O43242
# Experimental: as §1
# [30] = target: SMN2, Q16637
# Experimental: as §1
# [31] = target: ARIH1, Q9Y4X5
# Experimental: as §1
# [32] = target: BRAT1, Q6PJG6
# Experimental: as §1
# [33] = target: C11orf58, O00193
# Experimental: as §1
# [34] = target: COL4A3BP, Q9Y5P4
# Experimental: as §1
# [35] = target: COPS8, Q99627
# Experimental: as §1
# [36] = target: EIF5A, P63241
# Experimental: as §1
# [37] = target: ENSA, O43768
# Experimental: as §1
# [38] = target: FOXK1, P85037
# Experimental: as §1
# [39] = target: NAP1L1, P55209
# Experimental: as §1
# [40] = target: PDXDC1, Q6P996
# Experimental: as §1
# [41] = target: POLR1C, O15160
# Experimental: as §1
# [42] = target: POP1, Q99575
# Experimental: as §1
# [43] = target: PTBP1, P26599
# Experimental: as §1
# [44] = target: PTMA, P06454
# Experimental: as §1
# [45] = target: RBMS1, P29558
# Experimental: as §1
# [46] = target: RNPS1, Q15287
# Experimental: as §1
# [47] = target: SEH1L, Q96EE3
# Experimental: as §1
# [48] = target: SHMT1, P34896
# Experimental: as §1
# [49] = target: SRSF7, Q16629
# Experimental: as §1
# [50] = target: TF, P02787
# Experimental: as §1
# [51] = target: TRAFD1, O14545
# Experimental: as §1
# [52] = target: TXNDC12, O95881
# Experimental: as §1
# [53] = target: VCL, P18206
# Experimental: as §1
# [54] = target: ARL2, P36404
# Experimental: as §1
# [55] = target: DDX51, Q8N8A6
# Experimental: as §1
# [56] = target: IFRD2, Q12894
# Experimental: as §1
# [57] = target: ITPR2, Q14571
# Experimental: as §1
# [58] = target: NUP43, Q8NFH3
# Experimental: as §1
# [59] = target: PDCL3, Q9H2J4
# Experimental: as §1
# [60] = target: TFB2M, Q9H5Q4
# Experimental: as §1
# [61] = target: ARL3, P36405
# Experimental: as §1
# [62] = target: CBX8, Q9HC52
# Experimental: as §1
# [63] = target: CCDC58, Q4VC31
# Experimental: as §1
# [64] = target: CHPT1, Q8WUD6
# Experimental: as §1
# [65] = substrate: CNP, P09543
# Experimental: as §1
# [66] = target: EHD1, Q9H4M9
# Experimental: as §1
# [67] = target: FGA, P02671
# Experimental: as §1
# [68] = target: HP, P00738
# Experimental: as §1
# [69] = target: MPG, P29372
# Experimental: as §1
# [70] = target: NDUFA6, P56556
# Experimental: as §1
# [71] = target: NOB1, Q9ULX3
# Experimental: as §1
# [72] = target: OSTC, Q9NRP0
# Experimental: as §1
# [73] = target: PDHA1, P08559
# Experimental: as §1
# [74] = target: RBM38, Q9H0Z9
# Experimental: as §1
# [75] = target: ZNF638, Q14966
# Experimental: as §1
# [76] = target: ARL6IP4, Q66PJ3
# Experimental: as §1
# [77] = target: BAZ1B, Q9UIG0
# Experimental: as §1
# [78] = target: CBSL
# Experimental: as §1
# [79] = target: COG4, Q9H9E3
# Experimental: as §1
# [80] = target: DDX31, Q9H8H2
# Experimental: as §1
# [81] = target: DNAJA1, P31689
# Experimental: as §1
# [82] = target: HCFC1, P51610
# Experimental: as §1
# [83] = target: MTPN, P58546
# Experimental: as §1
# [84] = target: PCBP2, Q15366
# Experimental: as §1
# [85] = target: PES1, O00541
# Experimental: as §1
# [86] = substrate: PNN, Q9H307
# Experimental: as §1
# [87] = target: RPF2, Q9H7B2
# Experimental: as §1
# [88] = target: ZC3H11A, O75152
# Experimental: as §1
# [89] = target: ZC3H18, Q86VM9
# Experimental: as §1
binder,measurement,setting,value
RSQDIGRSGAALETL [SNHG8],PRISMA enrichment of interactor (log2),[1],6.03
same,PRISMA enrichment of interactor (log2),[2],4.59
same,PRISMA enrichment of interactor (log2),[3],4.23
EPRWAGNRGLGPAGA [TBX5-AS1],PRISMA enrichment of interactor (log2),[4],4.74
same,PRISMA enrichment of interactor (log2),[5],5.24
same,PRISMA enrichment of interactor (log2),[6],5.15
same,PRISMA enrichment of interactor (log2),[7],4.71
same,PRISMA enrichment of interactor (log2),[8],8.32
same,PRISMA enrichment of interactor (log2),[9],7.35
same,PRISMA enrichment of interactor (log2),[10],3.86
same,PRISMA enrichment of interactor (log2),[11],5.47
same,PRISMA enrichment of interactor (log2),[12],4.47
same,PRISMA enrichment of interactor (log2),[13],5.17
DTFGGPGRRVCWWGR [RP11-464C19.3],PRISMA enrichment of interactor (log2),[4],8.27
same,PRISMA enrichment of interactor (log2),[14],5.25
same,PRISMA enrichment of interactor (log2),[15],5.11
same,PRISMA enrichment of interactor (log2),[16],7.38
LSRTFSSRKVVKAHA [IDI2-AS1],PRISMA enrichment of interactor (log2),[17],4.51
same,PRISMA enrichment of interactor (log2),[18],4.22
same,PRISMA enrichment of interactor (log2),[19],5.37
same,PRISMA enrichment of interactor (log2),[20],4.03
same,PRISMA enrichment of interactor (log2),[21],4.88
AITASLRGLQGVRSM [JPX],PRISMA enrichment of interactor (log2),[17],4.66
same,PRISMA enrichment of interactor (log2),[22],4.92
same,PRISMA enrichment of interactor (log2),[23],5.62
same,PRISMA enrichment of interactor (log2),[24],4.64
same,PRISMA enrichment of interactor (log2),[25],3.76
same,PRISMA enrichment of interactor (log2),[26],5.27
same,PRISMA enrichment of interactor (log2),[27],4.74
same,PRISMA enrichment of interactor (log2),[28],5.9
same,PRISMA enrichment of interactor (log2),[29],6.33
same,PRISMA enrichment of interactor (log2),[30],4.64
PSMTPSQTCRKKARI [PALLD],PRISMA enrichment of interactor (log2),[31],4.83
same,PRISMA enrichment of interactor (log2),[32],6
same,PRISMA enrichment of interactor (log2),[33],5.25
same,PRISMA enrichment of interactor (log2),[34],5.75
same,PRISMA enrichment of interactor (log2),[35],3.64
same,PRISMA enrichment of interactor (log2),[36],4.62
same,PRISMA enrichment of interactor (log2),[37],5.93
same,PRISMA enrichment of interactor (log2),[38],4.93
same,PRISMA enrichment of interactor (log2),[39],5.14
same,PRISMA enrichment of interactor (log2),[40],4.03
same,PRISMA enrichment of interactor (log2),[41],4.66
same,PRISMA enrichment of interactor (log2),[42],6.21
same,PRISMA enrichment of interactor (log2),[43],5.37
same,PRISMA enrichment of interactor (log2),[44],5.49
same,PRISMA enrichment of interactor (log2),[45],5.61
same,PRISMA enrichment of interactor (log2),[46],4.87
same,PRISMA enrichment of interactor (log2),[47],6.43
same,PRISMA enrichment of interactor (log2),[48],5.11
same,PRISMA enrichment of interactor (log2),[49],6.38
same,PRISMA enrichment of interactor (log2),[50],4.35
same,PRISMA enrichment of interactor (log2),[51],7.78
same,PRISMA enrichment of interactor (log2),[52],4.84
same,PRISMA enrichment of interactor (log2),[53],5
RPALLQMLKKVLPRK [RP11-12K22.1],PRISMA enrichment of interactor (log2),[54],7.4
same,PRISMA enrichment of interactor (log2),[55],5.53
same,PRISMA enrichment of interactor (log2),[56],6.11
same,PRISMA enrichment of interactor (log2),[57],6.09
same,PRISMA enrichment of interactor (log2),[58],5.5
same,PRISMA enrichment of interactor (log2),[59],6.24
same,PRISMA enrichment of interactor (log2),[60],5.59
AIRRGVVRVVGGGGQ [TUG1],PRISMA enrichment of interactor (log2),[61],5.43
same,PRISMA enrichment of interactor (log2),[62],6.03
same,PRISMA enrichment of interactor (log2),[63],5.59
same,PRISMA enrichment of interactor (log2),[64],4.21
same,PRISMA enrichment of interactor (log2),[65],4.48
same,PRISMA enrichment of interactor (log2),[66],5
same,PRISMA enrichment of interactor (log2),[67],8.21
same,PRISMA enrichment of interactor (log2),[68],4.78
same,PRISMA enrichment of interactor (log2),[69],4.83
same,PRISMA enrichment of interactor (log2),[70],4.64
same,PRISMA enrichment of interactor (log2),[71],4.87
same,PRISMA enrichment of interactor (log2),[72],4.58
same,PRISMA enrichment of interactor (log2),[73],6.88
same,PRISMA enrichment of interactor (log2),[74],5.37
same,PRISMA enrichment of interactor (log2),[53],5.88
same,PRISMA enrichment of interactor (log2),[75],5.17
ARERQLEKGLVFLNG [MIEF-MP],PRISMA enrichment of interactor (log2),[76],4.31
same,PRISMA enrichment of interactor (log2),[77],9.23
same,PRISMA enrichment of interactor (log2),[78],6.83
same,PRISMA enrichment of interactor (log2),[79],6.19
same,PRISMA enrichment of interactor (log2),[80],4.93
same,PRISMA enrichment of interactor (log2),[81],7.06
same,PRISMA enrichment of interactor (log2),[66],4.76
same,PRISMA enrichment of interactor (log2),[82],6.01
same,PRISMA enrichment of interactor (log2),[83],5.56
same,PRISMA enrichment of interactor (log2),[84],5.21
same,PRISMA enrichment of interactor (log2),[85],6.06
same,PRISMA enrichment of interactor (log2),[86],5.01
same,PRISMA enrichment of interactor (log2),[87],6.3
same,PRISMA enrichment of interactor (log2),[88],7.72
same,PRISMA enrichment of interactor (log2),[89],7.91

# In another format: results already given.
binder | measurement | setting | value
LSRTFSSRKVVKAHA [IDI2-AS1] | PRISMA enrichment of interactor (log2) | [19] | 5.37
AITASLRGLQGVRSM [JPX] | PRISMA enrichment of interactor (log2) | [24] | 4.64
PSMTPSQTCRKKARI [PALLD] | PRISMA enrichment of interactor (log2) | [36] | 4.62
RPALLQMLKKVLPRK [RP11-12K22.1] | PRISMA enrichment of interactor (log2) | [59] | 6.24
